# Hit rate of the full screen: of about 330,000 compounds, about 7,700 (2.3%) were called active. Inconclusive results, whose numbers are uncertain, are shown with a selection of clear calls. Calls come from the whole dose curve; as a rule, active = well fitted inhibition curve with a large enough effect; inconclusive = small, poorly fitted or top-dose-only effect, or effect the other way; inactive = flat fitted curve, though single readings scatter. Potencies beside an inconclusive call are fits to weak or partial responses and may not hold up.
# Assay: qHTS screen for small molecules that inhibit ELG1-dependent DNA repair in human embryonic kidney (HEK293T) cells expressing luciferase-tagged ELG1; note: nearly all actives have a fitted effect of over 55% in size
# Settings: HEK293T ELG1-luciferase reporter, luminescence, 16 h, DNA damage induced by 5-fluorouridine; series mostly up to 46.1 µM
# Outline: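 Quantitative HTS, concentration-response format. 2,000 cells/well co-treated with 5-fluorouridine and compound, 16 hr in 5% CO2 at 37 °C; ONE-Glo luminescence read after 30 min.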
# Potency is the fitted concentration of half-maximal effect.
row,SMILES,Potency
1,CC1CC(C)CN(S(=O)(=O)c2ccc3c(c2)oc(=O)n3CC(=O)NCc2cccnc2)C1 (stereo not given),active: 3.66 µM
2,C=CCn1c(O)c(C(C)=NC(C)c2ccccc2)c(=O)[nH]c1=O (stereo not given),"inconclusive: 20.6 µM [activator, single point]"
3,COCCNP(=O)(c1ccccc1)c1nc2ccccc2s1 (stereo not given),inactive
4,CCOC(=O)c1ccc(Nc2nc(C)cc(C)n2)cc1,"inconclusive: 11.6 µM [activator, partial curve, poor fit]"
5,CCCCOP(=O)(OCCCC)C(O)c1ccc(F)cc1 (stereo not given),"inconclusive: 20.6 µM [inhibitor, single point]"
6,COc1ccc(CNCCc2ccc3c(c2)OCO3)c(OC)c1OC,inactive
7,Nc1ccccc1N=Cc1c(O)n(CCC2=CCCCC2)c(=O)[nH]c1=O,"inconclusive: 23.1 µM [activator, partial curve, poor fit]"
8,Cc1cccc(NC(=O)CN2CCN(C(=O)COc3cccc(Br)c3)CC2)c1C,inactive
9,O=C(CN1CCCC1=O)N1CCOCC1,"inconclusive: 7.31 µM [activator, partial curve, poor fit]"
10,Nc1cc(Cl)c2nonc2c1[N+](=O)[O-],"inconclusive: 11.6 µM [inhibitor, partial curve, poor fit]"
11,O=[N+]([O-])c1ccc(NC2CCCC2)c2ccncc12,"inconclusive: 4.11 µM [inhibitor, full curve]"
12,Cc1nn(CC(C)C)c(Cl)c1C(=O)NC1CCC(C)CC1 (stereo not given),"inconclusive: 5.17 µM [activator, partial curve]"
13,COCCCOc1ccnc(CS(=O)c2nc3ccccc3[nH]2)c1C (stereo not given),"inconclusive: 25.9 µM [activator, single point]"
14,CCOC(=O)N1CCC(NC(=O)CCc2nc(C3=CCN(C)CC3)no2)CC1,inactive
15,CN1C(=O)C(=Cc2ccc(N(C)C)c([N+](=O)[O-])c2)C(=O)N(C)C1=O,"inconclusive: 29.1 µM [activator, single point]"
16,CCOC(=O)C1(c2ccccc2)CCN(CC(=O)Nc2cccc3ccccc23)CC1,"inconclusive: 23.1 µM [inhibitor, partial curve, poor fit]"
17,Cc1ccc2c(c1)CCCN2N=O,inactive
18,COc1ccc(CCC(=O)N2C[C@H]3C[C@@H](C2)c2cccc(=O)n2C3)cc1,inactive
19,O=c1[nH]c(O)c(C=Nc2ccc(Cl)c(C(F)(F)F)c2)c(=O)[nH]1,inactive
20,Cc1cc(C=C2C(=O)NC(=O)NC2=O)c(C)n1-c1ccc2c(c1)OCO2,inactive
21,COc1ccc(-c2n(-c3ccccn3)c3ccccc3[n+]2-c2ccccn2)cc1,"inconclusive: 20.6 µM [inhibitor, partial curve, poor fit]"
22,CC(C)(C)NC(=O)N1c2ccccc2Sc2ccccc21,"inconclusive: 29.1 µM [activator, single point]"
23,O=c1[nH]c(=S)[nH]c(O)c1N=Nc1ccc(S(=O)(=O)N2CCc3ccccc32)cc1,"inconclusive: 9.2 µM [inhibitor, partial curve, poor fit]"
24,CCN(CC(=O)Nc1ccc(NC(C)=O)cc1)C(=O)CSC(c1ccccc1)c1ccccc1,"inconclusive: 11.2 µM [inhibitor, partial curve, poor fit]"

# Some of the entries so far, with bars between the fields.
row | SMILES | Potency
1 | CC1CC(C)CN(S(=O)(=O)c2ccc3c(c2)oc(=O)n3CC(=O)NCc2cccnc2)C1 (stereo not given) | active: 3.66 µM
2 | C=CCn1c(O)c(C(C)=NC(C)c2ccccc2)c(=O)[nH]c1=O (stereo not given) | inconclusive: 20.6 µM [activator, single point]
3 | COCCNP(=O)(c1ccccc1)c1nc2ccccc2s1 (stereo not given) | inactive
5 | CCCCOP(=O)(OCCCC)C(O)c1ccc(F)cc1 (stereo not given) | inconclusive: 20.6 µM [inhibitor, single point]
7 | Nc1ccccc1N=Cc1c(O)n(CCC2=CCCCC2)c(=O)[nH]c1=O | inconclusive: 23.1 µM [activator, partial curve, poor fit]
8 | Cc1cccc(NC(=O)CN2CCN(C(=O)COc3cccc(Br)c3)CC2)c1C | inactive
9 | O=C(CN1CCCC1=O)N1CCOCC1 | inconclusive: 7.31 µM [activator, partial curve, poor fit]
10 | Nc1cc(Cl)c2nonc2c1[N+](=O)[O-] | inconclusive: 11.6 µM [inhibitor, partial curve, poor fit]
11 | O=[N+]([O-])c1ccc(NC2CCCC2)c2ccncc12 | inconclusive: 4.11 µM [inhibitor, full curve]
13 | COCCCOc1ccnc(CS(=O)c2nc3ccccc3[nH]2)c1C (stereo not given) | inconclusive: 25.9 µM [activator, single point]
14 | CCOC(=O)N1CCC(NC(=O)CCc2nc(C3=CCN(C)CC3)no2)CC1 | inactive
16 | CCOC(=O)C1(c2ccccc2)CCN(CC(=O)Nc2cccc3ccccc23)CC1 | inconclusive: 23.1 µM [inhibitor, partial curve, poor fit]
17 | Cc1ccc2c(c1)CCCN2N=O | inactive
19 | O=c1[nH]c(O)c(C=Nc2ccc(Cl)c(C(F)(F)F)c2)c(=O)[nH]1 | inactive
20 | Cc1cc(C=C2C(=O)NC(=O)NC2=O)c(C)n1-c1ccc2c(c1)OCO2 | inactive
21 | COc1ccc(-c2n(-c3ccccn3)c3ccccc3[n+]2-c2ccccn2)cc1 | inconclusive: 20.6 µM [inhibitor, partial curve, poor fit]
24 | CCN(CC(=O)Nc1ccc(NC(C)=O)cc1)C(=O)CSC(c1ccccc1)c1ccccc1 | inconclusive: 11.2 µM [inhibitor, partial curve, poor fit]

# The list goes on:

row,SMILES,Potency
1,CCC(=NCc1cccnc1)c1c(O)n(-c2ccc(Cl)cc2)c(=O)[nH]c1=O,inactive
2,COc1ccc(O)c2c(=O)c3c(OC)cc4c(c3oc12)C1C=COC1O4 (stereo not given),inactive
3,O=c1[nH]c(=S)n(-c2ccccc2Cl)c(O)c1C=NCCN1CCNCC1,inactive
4,CN1CCN(S(=O)(=O)c2ccc(Cl)nc2)CC1,"inconclusive: 18.4 µM [activator, partial curve, poor fit]"
5,CCOC(=O)c1sc(=NC(=O)c2ccc(C)c(C)c2)n(C)c1C,"inconclusive: 4.11 µM [activator, partial curve]"
6,COc1ccc(C(=O)C2CCCN(Cc3ccon3)C2)cc1OC (stereo not given),"inconclusive: 6.51 µM [inhibitor, single point]"
7,Cc1ccc(S(=O)(=O)N2CCC(C(=O)N3CCC4(CC3)OCCO4)CC2)cc1,inactive
8,OC1(c2ccc(F)cc2)CC2CCC(C1)N2Cc1nnnn1C1CCCC1 (stereo not given),"inconclusive: 20.6 µM [inhibitor, single point]"
9,COc1cccc(OC)c1C(=O)NC(=S)N1C[C@H]2C[C@H](C1)c1cccc(=O)n1C2,inactive
10,S=C=Nc1cccc(C2(N3CCCCC3)CCCCC2)c1,inactive
11,C=C(C)CSc1nnc([C@@H](N)Cc2ccccc2)o1,"inconclusive: 14.6 µM [activator, single point]"
12,Cc1cccc(NC(=O)CSc2nnc([C@@H](N)Cc3c[nH]c4ccccc34)o2)c1C,"inconclusive: 29.1 µM [inhibitor, single point]"
13,C[C@]1(O)CCC2C3CC[C@H]4C[C@@H](OC(=O)CNC(=O)CN)CC[C@]4(C)C3CC[C@@]21C (stereo not given in full),inactive
14,CCN1CCN(C(=O)COc2ccc3c(c2)C(=O)CC2(CCN(C(C)=O)CC2)O3)CC1,"inconclusive: 16.4 µM [inhibitor, single point]"
15,FC(F)(F)Oc1ccc(C2NCc3ccccc3-n3cccc32)cc1 (stereo not given),inactive
16,Cc1ccc(N2C(=O)NC(=O)/C(=C\C=C\c3ccco3)C2=O)cc1,"inconclusive: 29.1 µM [inhibitor, single point]"
17,Cc1oc2ccc(OC(=O)N3CCOCC3)cc2c1C(=O)OC(C)C,"inconclusive: 18.4 µM [inhibitor, single point]"
18,COc1cc(NS(=O)(=O)c2ccc3c(c2)oc(=O)n3C)cc(OC)c1OC,"inconclusive: 7.31 µM [inhibitor, partial curve, poor fit]"
19,O=C(Nc1ccc(F)cc1)OC1CN2CCC1CC2 (stereo not given),"inconclusive: 18.3 µM [activator, partial curve]"
20,CC(C)NC(=O)NC1C2CC3CC(C2)CC1C3 (stereo not given),"inconclusive: 3.66 µM [activator, partial curve, poor fit]"
21,c1ccc2c(c1)CSc1ccccc1C2C1=NCCN1 (stereo not given),"inconclusive: 9.2 µM [inhibitor, partial curve]"
22,COc1cccc(O)c1CN1CCCC(C(=O)c2sccc2C)C1 (stereo not given),"inconclusive: 18.3 µM [inhibitor, partial curve, poor fit]"
23,CCOc1cc(C)cc2oc(=O)c3c(c12)CCCC3,inactive
24,C[C@]12CCC3C(CC[C@H]4C[C@H](OC(=O)c5cccnc5)CC[C@]34C)C1CCC2=O (stereo not given in full),"inconclusive: 29.1 µM [inhibitor, single point]"

row,SMILES,Potency
1,c1ccc2c(CN3CCOCC3)c[nH]c2c1,inactive
2,C[C@H](CO)N1C[C@H](C)[C@@H](CN(C)Cc2ccc(Cl)c(Cl)c2)Oc2c(NC(=O)c3ccncc3)cccc2C1=O,"inconclusive: 29.1 µM [inhibitor, single point]"
3,CCC(C)N1CCN(C(=O)COc2ccc3ccccc3c2)CC1 (stereo not given),inactive
4,CCCCn1c(O)c(C(C)=NCc2cc(OC)cc(OC)c2)c(=O)[nH]c1=O,active: 23.1 µM
5,O=C(COc1ccc(S(=O)(=O)N2CCOCC2)cc1)N1CCN(Cc2ccc3c(c2)OCO3)CC1,"inconclusive: 16.4 µM [inhibitor, single point]"
6,COc1cccc(OP(=O)(Nc2ccccc2)Oc2cccc(OC)c2)c1,"inconclusive: 31.6 µM [inhibitor, single point]"
7,O=C(c1ccco1)c1cn(Cc2ccc(Cl)cc2)c2ccccc12,inactive
8,Cc1ccccc1Cn1cnc2c(oc3ccccc32)c1=O,"inconclusive: 29.1 µM [activator, single point]"
9,N#CCCN(C(=O)COC(=O)c1ccc2c(c1)NC(=O)CS2)c1ccc2c(c1)OCCO2,"inconclusive: 32.6 µM [inhibitor, single point]"
10,CCC(=NC1CCN(Cc2ccccc2)CC1)c1c(O)[nH]c(=O)[nH]c1=O,"inconclusive: 16.4 µM [activator, partial curve, poor fit]"
11,Cc1sc2ncnc(SCC(=O)Nc3ccc(S(=O)(=O)N4CCOCC4)cc3)c2c1C,"inconclusive: 25.9 µM [inhibitor, partial curve, poor fit]"
12,C[C@]12CCC3C(CC[C@H]4C[C@@H](O)CC[C@]34C)C1C[C@@H](O)[C@H]2O (stereo not given in full),"inconclusive: 23.1 µM [inhibitor, partial curve, poor fit]"
13,COc1ccc(CCNCc2ccncc2)cc1OC,"inconclusive: 20.6 µM [activator, single point]"
14,C[n+]1c(-c2ccccc2)c2cc(N)ccc2c2ccc(N)cc21,"inconclusive: 29.1 µM [inhibitor, partial curve, poor fit]"
15,CN(C)S(=O)(=O)c1cc(NC(=O)COC(=O)Cc2ccccc2)ccc1Cl,inactive
16,CCCCN1C(=O)NC(=O)C2(Cc3c(nc4ccccn4c3=O)N3CCc4ccccc4C32)C1=O (stereo not given),"inconclusive: 14.6 µM [inhibitor, partial curve]"
17,Cc1cccc([N+](=O)[O-])c1,inactive
18,O=c1c2ccccc2[se]n1-c1ccccc1,inactive
19,c1ccc(CCNCc2ccccc2)cc1,"inconclusive: 16.4 µM [activator, partial curve, poor fit]"
20,O=C1Nc2ccccc2/C1=C/c1nc2ccccc2c(=O)n1-c1ccc(O)cc1,active: 18.3 µM
21,COc1cc2c(cc1OC)C(C(=O)N1CCC3(CC1)OCCO3)C(c1ccccc1F)N(C)C2=O (stereo not given),active: 18.4 µM
22,COC(=O)C1=C(c2ccc(-c3ccccc3)c(F)c2)C[C@@H]2CC[C@H]1N2C(=O)NC1CCCCC1,"inconclusive: 13 µM [inhibitor, single point]"

# From PubChem BioAssay AID504467 (National Center for Advancing Translational Sciences (NCATS), 2011)
